Publication PMC7250321
Results are given in words; binding and its absence hold for the method and conditions named. Binding seen in cells or lysates may run through a third protein. Some entries that bind do so weakly or less than the wild type. Where a sequence is shown, tags or fusion partners need not be part of it.

Molecular target: Flag-tagged ACOX1 protein (acyl-CoA oxidase 1) (human) (UniProt Q15067)
Test: co-IP; HEK293T cells co-transfected; IP lysis buffer (0.025 M Tris-HCl, 0.15 M NaCl, 1 mM EDTA, 1% NP-40, 5% glycerol, pH 7.4); IP with anti-Flag or anti-HA or control IgG overnight at 4°C, protein G agarose; Western blot

binding: binds
B1: Flag-tagged ACOX1 protein (acyl-CoA oxidase 1) (enzyme, UniProt Q15067 1-660)
chain: MNPDLRRERDSASFNPELLTHILDGSPEKTRRRREIENMILNDPDFQHEDLNFLTRSQRYEVAVRKSAIMVKKMREFGIADPDEIMWFKKLHLVNFVEPVGLNYSMFIPTLLNQGTTAQKEKWLLSSKGLQIIGTYAQTEMGHGTHLRGLETTATYDPETQEFILNSPTVTSIKWWPGGLGKTSNHAIVLAQLITKGKCYGLHAFIVPIREIGTHKPLPGITVGDIGPKFGYDEIDNGYLKMDNHRIPRENMLMKYAQVKPDGTYVKPLSNKLTYGTMVFVRSFLVGEAARALSKACTIAIRYSAVRHQSEIKPGEPEPQILDFQTQQYKLFPLLATAYAFQFVGAYMKETYHRINEGIGQGDLSELPELHALTAGLKAFTSWTANTGIEACRMACGGHGYSHCSGLPNIYVNFTPSCTFEGENTVMMLQTARFLMKSYDQVHSGKLVCGMVSYLNDLPSQRIQPQQVAVWPTMVDINSPESLTEAYKLRAARLVEIAAKNLQKEVIHRKSKEVAWNLTSVDLVRASEAHCHYVVVKLFSEKLLKIQDKAIQAVLRSLCLLYSLYGISQNAGDFLQGSIMTEPQITQVNQRVKELLTLIRSDAVALVDAFDFQDVTLGSVLGRYDGNVYENLFEWAKNSPLNKAEVHESYKHLKSLQSKL
